Measurements published in publication PMC5447890.
Results are given in words; binding and its absence hold for the method and conditions named.

These substances were tested against T1, granule-bound starch synthase I (StGBSS), in pGBKT7 (potato (Solanum tuberosum L.)) (UniProt Q00775) (assay: two-hybrid; Gal4-based yeast two-hybrid, pGADT7 and pGBKT7 vectors in yeast strain AH109; colour on SD/–Leu–Trp/X-α-Gal and survival on SD/–Leu–Trp–His).
T1 sequence: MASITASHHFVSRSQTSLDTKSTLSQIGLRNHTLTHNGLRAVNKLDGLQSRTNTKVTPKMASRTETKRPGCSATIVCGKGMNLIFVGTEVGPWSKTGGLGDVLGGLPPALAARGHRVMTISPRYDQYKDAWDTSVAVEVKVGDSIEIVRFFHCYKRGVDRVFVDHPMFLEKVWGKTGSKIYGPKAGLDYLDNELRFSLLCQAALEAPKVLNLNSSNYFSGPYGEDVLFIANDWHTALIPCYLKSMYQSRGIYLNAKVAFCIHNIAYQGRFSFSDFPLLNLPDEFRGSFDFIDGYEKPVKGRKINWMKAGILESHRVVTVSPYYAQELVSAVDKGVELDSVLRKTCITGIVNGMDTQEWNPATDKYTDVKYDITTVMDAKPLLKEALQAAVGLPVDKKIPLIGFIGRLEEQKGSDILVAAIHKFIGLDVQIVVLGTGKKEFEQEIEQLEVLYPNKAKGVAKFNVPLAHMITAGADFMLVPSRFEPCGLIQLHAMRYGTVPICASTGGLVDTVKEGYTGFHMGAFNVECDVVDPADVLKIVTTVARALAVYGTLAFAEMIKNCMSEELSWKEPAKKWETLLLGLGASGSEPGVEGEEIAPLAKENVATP
For “StAmy23, in pGADT7 (potato (Solanum tuberosum L.))”, the binding was “no binding”. With “StBAM1, in pGADT7 (potato (Solanum tuberosum L.))” the binding was “no binding”. For “StBAM9, in pGADT7 (potato (Solanum tuberosum L.))”, the binding was “no binding”.
